Measured values as given in US20240034757A1.
Results are given in words; binding and its absence hold for the method and conditions named. For some of these results: Tags and fused reporters may be left off the sequences shown.

By UniProt entry, the sequences of proteins in these tests, tags left out. Residues count along the entry.
UniProt P80162, residues 38-114: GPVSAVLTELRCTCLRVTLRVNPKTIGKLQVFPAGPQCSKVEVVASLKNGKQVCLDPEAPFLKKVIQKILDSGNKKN
UniProt P19875, residues 35-107: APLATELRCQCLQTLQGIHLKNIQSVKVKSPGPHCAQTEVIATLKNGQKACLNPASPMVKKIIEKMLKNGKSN
UniProt P55773, residues 22-120: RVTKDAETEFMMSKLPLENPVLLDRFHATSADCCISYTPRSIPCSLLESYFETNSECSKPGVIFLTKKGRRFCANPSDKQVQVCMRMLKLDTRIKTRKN
UniProt Q9Y4X3, residues 25-112: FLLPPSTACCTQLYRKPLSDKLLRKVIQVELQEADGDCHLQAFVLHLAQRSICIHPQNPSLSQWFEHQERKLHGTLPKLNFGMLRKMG
UniProt Q99731, residues 22-98: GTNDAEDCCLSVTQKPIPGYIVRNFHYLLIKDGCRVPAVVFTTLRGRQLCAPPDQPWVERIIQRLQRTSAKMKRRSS
UniProt O00585, residues 24-134: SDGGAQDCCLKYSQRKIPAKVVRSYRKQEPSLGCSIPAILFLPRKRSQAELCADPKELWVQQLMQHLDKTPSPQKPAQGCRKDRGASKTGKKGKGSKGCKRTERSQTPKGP
UniProt O00626, residues 25-93: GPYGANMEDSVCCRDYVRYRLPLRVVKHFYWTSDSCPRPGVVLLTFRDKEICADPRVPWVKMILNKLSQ
UniProt Q9NRJ3, residues 23-127: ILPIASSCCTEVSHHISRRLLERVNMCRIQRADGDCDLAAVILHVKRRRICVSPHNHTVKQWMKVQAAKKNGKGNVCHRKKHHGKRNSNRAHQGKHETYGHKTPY
UniProt P48061, residues 22-89: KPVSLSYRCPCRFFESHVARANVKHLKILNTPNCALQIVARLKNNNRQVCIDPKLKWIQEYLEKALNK
UniProt O43927, residues 23-109: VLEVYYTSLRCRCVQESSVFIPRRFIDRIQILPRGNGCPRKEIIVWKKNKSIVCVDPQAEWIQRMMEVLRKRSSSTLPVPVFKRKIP
UniProt Q07325, residues 23-125: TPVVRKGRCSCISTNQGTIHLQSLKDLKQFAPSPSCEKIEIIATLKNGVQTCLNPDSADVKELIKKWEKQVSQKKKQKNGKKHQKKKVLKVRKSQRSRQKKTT
UniProt Q16627, residues 22-93: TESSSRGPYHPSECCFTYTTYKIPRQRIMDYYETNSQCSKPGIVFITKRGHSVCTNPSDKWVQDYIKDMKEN
UniProt P78423, residues 25-100: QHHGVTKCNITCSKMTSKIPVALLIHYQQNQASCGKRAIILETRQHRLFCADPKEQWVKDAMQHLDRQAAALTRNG
UniProt P02775, residues 59-128: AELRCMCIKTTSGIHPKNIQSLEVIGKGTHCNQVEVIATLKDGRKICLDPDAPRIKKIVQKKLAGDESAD
UniProt P78556, residues 27-96: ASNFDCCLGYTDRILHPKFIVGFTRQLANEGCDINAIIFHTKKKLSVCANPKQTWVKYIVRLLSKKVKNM
UniProt P19876, residues 35-107: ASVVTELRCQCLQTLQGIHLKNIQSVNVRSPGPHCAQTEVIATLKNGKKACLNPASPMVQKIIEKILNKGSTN
UniProt Q16663, residues 22-113: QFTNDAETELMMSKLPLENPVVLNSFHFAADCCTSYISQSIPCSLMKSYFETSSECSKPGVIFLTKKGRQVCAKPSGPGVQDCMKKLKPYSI
UniProt P42830, residues 41-114: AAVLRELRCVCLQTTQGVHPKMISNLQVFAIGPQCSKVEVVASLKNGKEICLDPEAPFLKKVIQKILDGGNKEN
UniProt O95715, residues 35-111: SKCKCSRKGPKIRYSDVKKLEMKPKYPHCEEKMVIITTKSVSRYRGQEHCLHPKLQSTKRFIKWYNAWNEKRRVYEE
UniProt P02776, residues 32-101: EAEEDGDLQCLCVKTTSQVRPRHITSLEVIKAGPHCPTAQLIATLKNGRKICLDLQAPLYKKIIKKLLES
UniProt P09341, residues 35-107: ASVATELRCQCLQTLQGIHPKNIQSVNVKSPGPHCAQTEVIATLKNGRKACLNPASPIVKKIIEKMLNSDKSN
UniProt P10145, residues 28-99: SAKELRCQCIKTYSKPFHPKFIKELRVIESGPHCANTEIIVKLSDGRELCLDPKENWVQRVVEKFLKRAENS
UniProt P02778, residues 22-98: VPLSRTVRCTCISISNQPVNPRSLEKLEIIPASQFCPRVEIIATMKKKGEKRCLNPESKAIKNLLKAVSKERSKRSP
UniProt O14625, residues 22-94: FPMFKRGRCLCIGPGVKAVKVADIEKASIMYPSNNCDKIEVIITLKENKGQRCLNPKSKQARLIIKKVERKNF

Tests used:
CXCL6_HUMAN (human) [1] = target: CXCL6_HUMAN (human) (UniProt P80162); test: BLI, empty cell the 12th table, row 47, column 12
CXCL2_HUMAN (human) [2] = target: CXCL2_HUMAN (human) (UniProt P19875); test: BLI, empty cell the 12th table, row 43, column 12
CCL23_HUMAN (human) = CCL23_HUMAN (human) (UniProt P55773); test: BLI, empty cell the 12th table, row 34, column 12
CCL27_HUMAN (human) = CCL27_HUMAN (human) (UniProt Q9Y4X3); test: BLI, empty cell the 12th table, row 38, column 12
CCL19_HUMAN (human) = CCL19_HUMAN (human) (UniProt Q99731); test: BLI, empty cell the 12th table, row 29, column 12
CCL21_HUMAN (human) = CCL21_HUMAN (human) (UniProt O00585); test: BLI, empty cell the 12th table, row 32, column 12
CCL22_HUMAN (human) = CCL22_HUMAN (human) (UniProt O00626); test: BLI, empty cell the 12th table, row 33, column 12
CCL28_HUMAN (human) [3] = target: CCL28_HUMAN (human) (UniProt Q9NRJ3); test: BLI, empty cell the 12th table, row 40, column 12
CXCL12_HUMAN (human) [4] = target: CXCL12_HUMAN (human) (UniProt P48061); test: BLI, empty cell the 12th table, row 53, column 12
CXCL13_HUMAN (human) [5] = target: CXCL13_HUMAN (human) (UniProt O43927); test: BLI, empty cell the 12th table, row 54, column 12
XCL1_HUMAN (human) [6] = target: T1, XCL1_HUMAN (human) (UniProt P47992); test: BLI, empty cell the 12th table, row 59, column 12
T1 sequence: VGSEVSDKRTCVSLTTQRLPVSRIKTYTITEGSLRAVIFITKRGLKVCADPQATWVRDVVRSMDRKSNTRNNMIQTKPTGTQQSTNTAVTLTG

CXCL9_HUMAN (human) [7] = target: CXCL9_HUMAN (human) (UniProt Q07325); test: BLI, empty cell the 12th table, row 50, column 12
CCL14_HUMAN (human) = CCL14_HUMAN (human) (UniProt Q16627); test: BLI, empty cell the 12th table, row 24, column 12
CX3CL1_HUMAN (human) [8] = target: CX3CL1_HUMAN (human) (UniProt P78423); test: BLI, empty cell the 12th table, row 41, column 12
CXCL7_HUMAN (human) [9] = target: CXCL7_HUMAN (human) (UniProt P02775); test: BLI, empty cell the 12th table, row 48, column 12
CCL20_HUMAN (human) = CCL20_HUMAN (human) (UniProt P78556); test: BLI, empty cell the 12th table, row 30, column 12
CXCL3_HUMAN (human) [10] = target: CXCL3_HUMAN (human) (UniProt P19876); test: BLI, empty cell the 12th table, row 44, column 12
CCL15_HUMAN (human) = CCL15_HUMAN (human) (UniProt Q16663); test: BLI, empty cell the 12th table, row 25, column 12
CXCL5_HUMAN (human) [11] = target: CXCL5_HUMAN (human) (UniProt P42830); test: BLI, empty cell the 12th table, row 46, column 12
CXCL14_HUMAN (human) [12] = target: CXCL14_HUMAN (human) (UniProt O95715); test: BLI, empty cell the 12th table, row 55, column 12
CXCL4_HUMAN (human) [13] = target: CXCL4_HUMAN (human) (UniProt P02776); test: BLI, empty cell the 12th table, row 45, column 12
CXCL1_HUMAN (human) [14] = target: CXCL1_HUMAN (human) (UniProt P09341); test: BLI, empty cell the 12th table, row 42, column 12
CXCL8_HUMAN (human) [15] = target: CXCL8_HUMAN (human) (UniProt P10145); test: BLI, empty cell the 12th table, row 49, column 12
CXCL14_HUMAN (human) [16] = target: CXCL14_HUMAN (human) (UniProt O95715); test: BLI, empty cell the 12th table, row 55, column 5
CXCL3_HUMAN (human) [17] = target: CXCL3_HUMAN (human) (UniProt P19876); test: BLI, empty cell the 12th table, row 44, column 5
CXCL5_HUMAN (human) [18] = target: CXCL5_HUMAN (human) (UniProt P42830); test: BLI, empty cell the 12th table, row 46, column 5
CXCL10_HUMAN (human) [19] = target: CXCL10_HUMAN (human) (UniProt P02778); test: BLI, empty cell the 12th table, row 51, column 5
CXCL11_HUMAN (human) [20] = target: CXCL11_HUMAN (human) (UniProt O14625); test: BLI, empty cell the 12th table, row 52, column 5
CXCL9_HUMAN (human) [21] = target: CXCL9_HUMAN (human) (UniProt Q07325); test: BLI, empty cell the 12th table, row 50, column 5
CX3CL1_HUMAN (human) [22] = target: CX3CL1_HUMAN (human) (UniProt P78423); test: BLI, empty cell the 12th table, row 41, column 5
CXCL8_HUMAN (human) [23] = target: CXCL8_HUMAN (human) (UniProt P10145); test: BLI, empty cell the 12th table, row 49, column 5
CXCL13_HUMAN (human) [24] = target: CXCL13_HUMAN (human) (UniProt O43927); test: BLI, empty cell the 12th table, row 54, column 5
CXCL4_HUMAN (human) [25] = target: CXCL4_HUMAN (human) (UniProt P02776); test: BLI, empty cell the 12th table, row 45, column 5
CXCL1_HUMAN (human) [26] = target: CXCL1_HUMAN (human) (UniProt P09341); test: BLI, empty cell the 12th table, row 42, column 5
CXCL7_HUMAN (human) [27] = target: CXCL7_HUMAN (human) (UniProt P02775); test: BLI, empty cell the 12th table, row 48, column 5
XCL1_HUMAN (human) [28] = target: T1, XCL1_HUMAN (human); test: BLI, empty cell the 12th table, row 59, column 5
CXCL2_HUMAN (human) [29] = target: CXCL2_HUMAN (human) (UniProt P19875); test: BLI, empty cell the 12th table, row 43, column 5
CXCL6_HUMAN (human) [30] = target: CXCL6_HUMAN (human) (UniProt P80162); test: BLI, empty cell the 12th table, row 47, column 5
CCL28_HUMAN (human) [31] = target: CCL28_HUMAN (human) (UniProt Q9NRJ3); test: BLI, empty cell the 12th table, row 40, column 5
CXCL7_HUMAN (human) [32] = target: CXCL7_HUMAN (human) (UniProt P02775); test: BLI, empty cell the 12th table, row 48, column 6
CCL28_HUMAN (human) [33] = target: CCL28_HUMAN (human) (UniProt Q9NRJ3); test: BLI
CXCL8_HUMAN (human) [34] = target: CXCL8_HUMAN (human) (UniProt P10145); test: BLI, empty cell the 12th table, row 49, column 6
CXCL4_HUMAN (human) [35] = target: CXCL4_HUMAN (human) (UniProt P02776); test: BLI, empty cell the 12th table, row 45, column 6
CXCL5_HUMAN (human) [36] = target: CXCL5_HUMAN (human) (UniProt P42830); test: BLI, empty cell the 12th table, row 46, column 6
CXCL11_HUMAN (human) [37] = target: CXCL11_HUMAN (human) (UniProt O14625); test: BLI, empty cell the 12th table, row 52, column 6
XCL1_HUMAN (human) [38] = target: T1, XCL1_HUMAN (human); test: BLI, empty cell the 12th table, row 59, column 6
CCL28_HUMAN (human) [39] = target: CCL28_HUMAN (human) (UniProt Q9NRJ3); test: BLI, empty cell the 12th table, row 40, column 6
CX3CL1_HUMAN (human) [40] = target: CX3CL1_HUMAN (human) (UniProt P78423); test: BLI, empty cell the 12th table, row 41, column 6
CXCL10_HUMAN (human) [41] = target: CXCL10_HUMAN (human) (UniProt P02778); test: BLI, empty cell the 12th table, row 51, column 6
CXCL13_HUMAN (human) [42] = target: CXCL13_HUMAN (human) (UniProt O43927); test: BLI, empty cell the 12th table, row 54, column 6
CXCL9_HUMAN (human) [43] = target: CXCL9_HUMAN (human) (UniProt Q07325); test: BLI, empty cell the 12th table, row 50, column 6
CXCL12_HUMAN (human) [44] = target: CXCL12_HUMAN (human) (UniProt P48061); test: BLI, empty cell the 12th table, row 53, column 6
CXCL14_HUMAN (human) [45] = target: CXCL14_HUMAN (human) (UniProt O95715); test: BLI, empty cell the 12th table, row 55, column 6
CXCL1_HUMAN (human) [46] = target: CXCL1_HUMAN (human) (UniProt P09341); test: BLI, empty cell the 12th table, row 42, column 6
CXCL6_HUMAN (human) [47] = target: CXCL6_HUMAN (human) (UniProt P80162); test: BLI, empty cell the 12th table, row 47, column 6

Measured: binding

B1: P985_AMBPA (protein)
chain: DEESEELGASTDVDYEELDANCTCPAPALTSTRNNKHYPLGCIYNCSSYNCTIPDGTPCYVLTLGEVKEHLQIGSTVPNCTCGLCRNGTCVSNGTVEECFAVEEIEET
no binding (tested: 300 nM): CXCL6_HUMAN (human) [1] | CXCL2_HUMAN (human) [2] | CCL23_HUMAN (human) | CCL27_HUMAN (human) | CCL19_HUMAN (human) | CCL21_HUMAN (human) | CCL22_HUMAN (human) | CCL28_HUMAN (human) [3] | CXCL12_HUMAN (human) [4] | CXCL13_HUMAN (human) [5] | XCL1_HUMAN (human) [6] | CXCL9_HUMAN (human) [7] | CCL14_HUMAN (human) | CX3CL1_HUMAN (human) [8] | CXCL7_HUMAN (human) [9] | CCL20_HUMAN (human) | CXCL3_HUMAN (human) [10] | CCL15_HUMAN (human) | CXCL5_HUMAN (human) [11] | CXCL14_HUMAN (human) [12] | CXCL4_HUMAN (human) [13] | CXCL1_HUMAN (human) [14] | CXCL8_HUMAN (human) [15]

B2: P991_AMBCA (protein)
chain: ENGEGTTQPDYDNSTDYYNYEDFKCTCPAPHLNNTNGTVMKPIGCYYTCNVTRCTAPDTYPCYNLTEHQAKNLTTSPTTLCAVGNCDHGICVPNGTKELCFKAPNLEE
no binding (tested: 300 nM): CXCL14_HUMAN (human) [16] | CXCL3_HUMAN (human) [17] | CXCL5_HUMAN (human) [18] | CXCL10_HUMAN (human) [19] | CXCL11_HUMAN (human) [20] | CXCL9_HUMAN (human) [21] | CX3CL1_HUMAN (human) [22] | CXCL8_HUMAN (human) [23] | CXCL13_HUMAN (human) [24] | CXCL4_HUMAN (human) [25] | CXCL1_HUMAN (human) [26] | CXCL7_HUMAN (human) [27] | XCL1_HUMAN (human) [28] | CXCL2_HUMAN (human) [29] | CXCL6_HUMAN (human) [30] | CCL28_HUMAN (human) [31]

B3: P1243_AMBAM (protein)
chain: RNHTEDNSTEYYDYEEARCACPARHLNNTNGTVLKLLGCHYFCNGTLCTAPDGYPCYNLTAQQVRTLTTYPNTSCAVGVCMKGTCVKNGTMEQCFKTP
no binding (tested: 300 nM): CXCL7_HUMAN (human) [32] | CCL28_HUMAN (human) [33] | CXCL8_HUMAN (human) [34] | CXCL4_HUMAN (human) [35] | CXCL5_HUMAN (human) [36] | CXCL11_HUMAN (human) [37] | XCL1_HUMAN (human) [38] | CCL28_HUMAN (human) [39] | CX3CL1_HUMAN (human) [40] | CXCL10_HUMAN (human) [41] | CXCL13_HUMAN (human) [42] | CXCL9_HUMAN (human) [43] | CXCL12_HUMAN (human) [44] | CXCL14_HUMAN (human) [45] | CXCL1_HUMAN (human) [46] | CXCL6_HUMAN (human) [47]
